# Test results reported in paper doi:10.1101/487322.
# Results are given in words; binding and its absence hold for the method and conditions named. Some entries that bind do so weakly or less than the wild type.
# Target: Turnip crinkle virus coat protein (P38) (Turnip crinkle virus) (UniProt P06663)
# Experiment: native gel or EMSA
binder,measurement,value
"Turnip crinkle virus coat protein (P38) (protein, UniProt P06663 1-351) MENDPRVRKFASDGAQWAIKWQKKGWSTLTSRQKQTARAAMGIKLSPVAQPVQKVTRLSAPVALAYREVSTQPRVSTARDGITRSGSELITTLKKNTDTEPKYTTAVLNPSEPGTFNQLIKEAAQYEKYRFTSLRFRYSPMSPSTTGGKVALAFDRDAAKPPPNDLASLYNIEGCVSSVPWTGFILTVPTDSTDRFVADGISDPKLVDFGKLIMATYGQGANDAAQLGEVRVEYTVQLKNRTGSTSDAQIGDFAGVKDGPRLVSWSKTKGTAGWEHDCHFLGTGNFSLTLFYEKAPVSGLENADASDFSVLGEAAAGSVQWAGVKVAERGQGVKMVTTEEQPKGKWQALRI",binding,binds
